T/C and survivor count data for 3 compounds are collected here from PubChem BioAssay AID192 (DTP/NCI, 2004).

The test system of the assay is BDF1 mice, B16 melanoma ip, median survival T/C. Description: NCI In Vivo Anticancer Drug Screen. Data for tumor model B16 Melanoma (intraperitoneal) in B6D2F1 (BDF1) mice. The settings on record: T/C endpoint: median survival time, higher T/C = longer survival. The essentials: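 The ratio T/C compares compound-treated mice with vehicle-treated controls, using survival or tumor size as the endpoint in a transplantable tumor model.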

Where [1] appears, read: dose: 20.0 mg/kg/injection, schedule: Q01DX009 (ip), vehicle: Klucel (hydroxypropylcellulose) (HPC).
The mark [2] stands for this setting: dose: 40.0 mg/kg/injection, schedule: Q01DX009 (ip), vehicle: Klucel (hydroxypropylcellulose) (HPC).
Setting [3] is: dose: 80.0 mg/kg/injection, schedule: Q01DX009 (ip), vehicle: saline.

Each structure is given as a SMILES string. The list does not hold the whole screen: it gathers tests that were run many times, whatever their T/C, doses with no T/C, and many T/C values between a quarter and a half above the control. Further doses and runs are listed elsewhere. T/C is the treated group as % of the vehicle group. Some doses have a count of surviving animals in place of a T/C: the source holds a T/C of zero for them, seemingly a mark for toxic or unscored doses. Some survivor counts are full or nearly so, which does not show that the dose was tolerated: the source hardly ever lists a survival T/C far under the control, and the zero likely stands for such cases as well. Survivors were counted at the toxicity check, usually on the fifth day, unless a day is given; later deaths do not show. Schedules are NCI's codes, taken here to give the interval after Q, in days (D) or hours (H), and the number of doses after X. Some entries hold several experiments; the results are listed from low to high. Counts like (3×) give the number of equal values in this list. For survival time, the PubChem record calls one and a half times the control and up active, and a quarter to a half above the control has no call in these data; cut-offs in other NCI protocols can differ. Some T/C values carry the count of animals alive at the toxicity check (mostly the fifth day); where none is given, no animal had died by that day.

Turning to `O=c1[nH]cc(F)c(=O)[nH]1`, the T/C runs as follows: (dose: 1.0 mg/kg/injection, schedule: Q01DX009 (ip), vehicle: saline) 126 % of control; (dose: 1.25 mg/kg/injection, schedule: Q01DX009 (ip), vehicle: saline) 103 (2×), 106, 108 % of control; (dose: 2.5 mg/kg/injection, schedule: Q01DX009 (ip), vehicle: saline, evaluated on day 5) 105, 109 (2×), 111 % of control; (dose: 2.5 mg/kg/injection, schedule: Q01DX009 (ip), vehicle: saline, evaluated on day 45) 96 % of control; (dose: 2.5 mg/kg/injection, schedule: Q01DX009 (ip), vehicle: saline, evaluated on day 60) 95, 114, 142 % of control; (dose: 5.0 mg/kg/injection, schedule: Q01DX009 (ip), vehicle: saline, evaluated on day 5) 109, 110, 111, 113, 120 % of control. Further, the T/C is, setting by setting: (dose: 5.0 mg/kg/injection, schedule: Q01DX009 (ip), vehicle: saline, evaluated on day 10) 107 % of control [8 of 9 alive]; (dose: 5.0 mg/kg/injection, schedule: Q01DX009 (ip), vehicle: saline, evaluated on day 35) 137 % of control; (dose: 5.0 mg/kg/injection, schedule: Q01DX009 (ip), vehicle: saline, evaluated on day 45) 105 % of control; (dose: 5.0 mg/kg/injection, schedule: Q01DX009 (ip), vehicle: saline, evaluated on day 60) 102, 108, 115, 117, 121 % of control; (dose: 5.0 mg/kg/injection, schedule: Q01DX017 (ip), vehicle: saline) 128 % of control; (dose: 5.0 mg/kg/injection, schedule: Q03HX024 (ip), vehicle: saline) 125 % of control. The T/C was 97, 102, 103, 105 [5 of 6 alive], 118 (2×), 125, 127, 130, 133 % of control (dose: 10.0 mg/kg/injection, schedule: Q01DX009 (ip), vehicle: Klucel (hydroxypropylcellulose) (HPC)); 118, 120 (2×), 122, 125 % of control (dose: 10.0 mg/kg/injection, schedule: Q01DX009 (ip), vehicle: saline, evaluated on day 5); 109 % of control [8 of 9 alive] (dose: 10.0 mg/kg/injection, schedule: Q01DX009 (ip), vehicle: saline, evaluated on day 10); 137 % of control (dose: 10.0 mg/kg/injection, schedule: Q01DX009 (ip), vehicle: saline, evaluated on day 35); 115 % of control (dose: 10.0 mg/kg/injection, schedule: Q01DX009 (ip), vehicle: saline, evaluated on day 45); 88, 100, 102 (2×), 104, 105, 107, 109, 110, 112, 115 [5 of 6 alive], 117, 119, 120, 121, 122 [5 of 6 alive], 125, 128, 130, 131 % of control (dose: 10.0 mg/kg/injection, schedule: Q01DX009 (ip), vehicle: saline, evaluated on day 60). The T/C is 142 % of control (dose: 10.0 mg/kg/injection, schedule: Q01DX017 (ip), vehicle: saline, evaluated on day 35); 128 % of control (dose: 10.0 mg/kg/injection, schedule: Q01DX017 (ip), vehicle: saline, evaluated on day 60); 130 % of control (dose: 10.0 mg/kg/injection, schedule: Q03HX024 (ip), vehicle: saline); 94, 107, 108, 113, 127, 136, 144, 146 % of control (2×) under setting [1]; 125 % of control (dose: 20.0 mg/kg/injection, schedule: Q01DX009 (ip), vehicle: saline with Tween-80); 121 [8 of 9 alive], 124, 130, 131, 138 % of control (dose: 20.0 mg/kg/injection, schedule: Q01DX009 (ip), vehicle: saline, evaluated on day 5). In addition, the T/C runs as follows: (dose: 20.0 mg/kg/injection, schedule: Q01DX009 (ip), vehicle: saline, evaluated on day 10) 122 [8 of 9 alive] and 133 % of control; (dose: 20.0 mg/kg/injection, schedule: Q01DX009 (ip), vehicle: saline, evaluated on day 35) 142 % of control; (dose: 20.0 mg/kg/injection, schedule: Q01DX009 (ip), vehicle: saline, evaluated on day 45) 131 % of control; (dose: 20.0 mg/kg/injection, schedule: Q01DX009 (ip), vehicle: saline, evaluated on day 60) 97, 105, 107 (2×), 112, 116 (2×), 117, 121 (2×), 128, 130, 132, 135, 135 [4 of 6 alive], 137, 142, 148, 150 % of control; (dose: 20.0 mg/kg/injection, schedule: Q05DX010 (ip), vehicle: saline) 137 % of control; (dose: 30.0 mg/kg/injection, schedule: Q01DX009 (ip), vehicle: saline) 126 % of control. Moreover, the T/C is 137 % of control (dose: 33.3 mg/kg/injection, schedule: Q01DX009 (ip), vehicle: saline); 93, 110, 111, 128 % of control [4 of 6 alive] under setting [2]; 128 % of control (dose: 40.0 mg/kg/injection, schedule: Q01DX009 (ip), vehicle: saline with Tween-80); 52 (2×), 55, 56, 63 % of control (dose: 40.0 mg/kg/injection, schedule: Q01DX009 (ip), vehicle: saline, evaluated on day 5); 85 % of control (dose: 40.0 mg/kg/injection, schedule: Q01DX009 (ip), vehicle: saline, evaluated on day 10); 90 (2×), 100, 102, 105 (2×), 132 % of control (dose: 40.0 mg/kg/injection, schedule: Q01DX009 (ip), vehicle: saline, evaluated on day 60). In addition, the T/C is 145 % of control (dose: 40.0 mg/kg/injection, schedule: Q05DX010 (ip), vehicle: saline); 130 % of control (dose: 60.0 mg/kg/injection, schedule: Q04DX003 (ip), vehicle: saline); 36, 41, 46, 47 % of control under setting [3]; 31, 33, 36, 39 % of control (dose: 160.0 mg/kg/injection, schedule: Q01DX009 (ip), vehicle: saline). The survivor count is, setting by setting: under setting [1], 6 of 6; (dose: 20.0 mg/kg/injection, schedule: Q03HX024 (ip), vehicle: saline) 10 of 10; under setting [2], 6 of 6; (dose: 40.0 mg/kg/injection, schedule: Q01DX009 (ip), vehicle: saline) 5 of 6, 10 of 10 (3×), 6 of 6; (dose: 40.0 mg/kg/injection, schedule: Q01DX017 (ip), vehicle: saline) 10 of 10; (dose: 50.0 mg/kg/injection, schedule: Q01DX009 (ip), vehicle: saline) 10 of 10. The survivor count is, setting by setting: (dose: 60.0 mg/kg/injection, schedule: Q01DX009 (ip), vehicle: saline) 10 of 10; under setting [3], 6 of 6; (dose: 100.0 mg/kg/injection, schedule: Q01DX009 (ip), vehicle: saline) 10 of 10; (dose: 100.0 mg/kg/injection, schedule: Q04DX003 (ip), vehicle: saline) 10 of 10; (dose: 100.0 mg/kg/injection, schedule: Q04DX005 (ip), vehicle: saline) 10 of 10; (dose: 200.0 mg/kg/injection, schedule: Q01DX009 (ip), vehicle: saline) 10 of 10. Moreover, the survivor count (dose: 200.0 mg/kg/injection, schedule: Q04DX003 (ip), vehicle: saline) is given as 10 of 10; the survivor count (dose: 400.0 mg/kg/injection, schedule: Q01DX001 (ip), vehicle: saline) was 10 of 10; the survivor count (dose: 400.0 mg/kg/injection, schedule: Q01DX009 (ip), vehicle: saline) is 10 of 10.

Regarding `O=c1[nH]c2c(ccc3cnccc32)c2c1CCC2`, the T/C (dose: 12.5 mg/kg/injection, schedule: Q01DX009 (ip), vehicle: suspension in saline) is 125 % of control and the T/C (dose: 25.0 mg/kg/injection, schedule: Q01DX009 (ip), vehicle: suspension in saline) was 125 % of control. The survivor count runs as follows: (dose: 50.0 mg/kg/injection, schedule: Q01DX009 (ip), vehicle: suspension in saline) 8 of 10; (dose: 100.0 mg/kg/injection, schedule: Q01DX009 (ip), vehicle: suspension in saline) 5 of 10.

For `Cc1n(CC(C)C)c2c([n+]1C)C(=O)c1ccccc1C2=O`, the survivor count is 3 of 6 (dose: 4.0 mg/kg/injection, schedule: Q01DX009 (ip), vehicle: saline) and 0 of 6 (dose: 8.0 mg/kg/injection, schedule: Q01DX009 (ip), vehicle: saline).
